The results in this text go back to PubChem BioAssay AID493014 (National Center for Advancing Translational Sciences (NCATS), 2011).

By AC50 is commonly meant the concentration at which the activity in the assay is half-maximal.

The nature of the assay: qHTS Assay to Find Inhibitors of Chronic Active B-Cell Receptor Signaling. Conditions: ABC-DLBCL IkBa-CBG/CBR reporter, luminescence ratio (green luciferase fused to IkBa over red control in TMD8 lymphoma cells), 4 h. The procedure, abridged: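 Concentration-response series (up to 46 uM) were applied to TMD8 dual-reporter cells for 4 h at 37C with doxycycline. Green/red ratio, after filter-overlap correction, defined %Activity; red signal alone was normalised to basal cells and zero luminescence.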
Background: Quantitative high-throughput screening tests each substance at several concentrations.

Setting [1] is: measured here: CBR red luminescence, cell number.
[2] abbreviates: measured here: IkBa-CBG green luminescence.

Where “and” joins values, the source holds several entries; their conditions need not be identical. Identical values can stand only once. Some of the results follow. Further columns of the screen follow, without active or inactive calls. The list favours compounds with an active or inconclusive main result. Potencies come from curve fits of mixed quality, noted in brackets.

`O=c1oc(-c2ccc(O)c(O)c2)cc2cc(O)cc(O)c12`: the AC50 under setting [1] was 29.1 µM [falling, single point].
On the same count and under the same terms, to `CCN(c1ccccc1)S(=O)(=O)c1cc(C(=O)Nc2ccc(Br)cc2)ccc1F` belongs 9.2 µM [falling, partial curve] and 35.5 µM [falling, single point].
Regarding `N/C(=N\OC(=O)c1cccc(F)c1)c1ccccn1`, the AC50 under setting [1] was 8.91 µM [falling, partial curve, poor fit].
Take `O=[N+]([O-])c1cc(/C=N/n2c(-c3ccncc3)n[nH]c2=S)ccc1Cl`: the AC50 is 15.8 µM [falling, partial curve] under setting [1] and 11.2 µM [rising, partial curve, poor fit] under setting [2].
Consider `CN1c2ccccc2-c2nc3ccccc3n2C1c1ccco1` (centres undefined), for which the AC50 under setting [1] is 11.2 µM [falling, partial curve, poor fit].
On to `C/C=C(/C)C(=O)Nc1cccc(C2=NOC3(C2)C[C@@H](C(N)=O)N(C(=O)c2ccc(OC)cc2)C3)c1` (some centres undefined), for which the AC50 under setting [1] was 0.891 µM [falling, full curve, poor fit].
On the same count and under the same terms, to `O=[N+]([O-])c1cccc(CSc2cccc[n+]2[O-])c1` belongs 7.08 µM [rising, partial curve, poor fit]; to `CCOC(=O)c1c(C)[nH]c(C(=O)N2CCCC(C(=O)c3cccc(OC)c3)C2)c1C` (centres undefined), 10 µM [falling, partial curve].
On the same count and under the same terms, as for `Cc1oc(-c2ccccc2)nc1CS(=O)CC(=O)O` (centres undefined), the figure is 29.1 µM [rising, single point].
Take `CC1(C)O[C@@H]2C[C@H]3[C@@H]4C[C@H](F)C5=CC(=O)CC[C@]5(C)[C@H]4[C@@H](O)C[C@]3(C)[C@]2(C(=O)CO)O1`: the AC50 is, setting by setting: under setting [1], 0.146 µM [rising, full curve, poor fit]; under setting [2], 0.00461 µM [falling, full curve].
On to `O=C(NC1CCCCC1)N1CCCC(c2nc3ccccc3[nH]2)C1` (centres undefined), for which the AC50 under setting [1] was 0.00517 µM [rising, full curve, poor fit].
As for `CSc1ccc(Cl)c(C(=O)Nc2cc(S(=O)(=O)N3CCOCC3)ccc2N2CCOCC2)c1`, the AC50 under setting [1] was 3.66 µM [rising, full curve].
In the case of `C[C@@]12C(=O)N(CC3CCCO3)CC(=O)N1[C@H]1c3cc(Cl)ccc3OC[C@@H]1[C@@H]2c1ccccc1` (some centres undefined), the half-maximal activity concentration (AC50) under setting [1] is 29.1 µM [falling, single point].
As for `CC(C)(C)C(=O)Cn1ncc(Br)c(Br)c1=O`, under setting [1], the AC50 is 8.91 µM [falling, partial curve, poor fit].
For `Cc1ccc(C23CC4CC(CC(C(N)=O)(C4)C2)C3)cc1`, the AC50 under setting [1] was 35.5 µM [rising, partial curve, poor fit].
Still for that read-out and setting: to `COC(=O)[C@@H](NC(=O)O[C@H]1C(=O)c2ccc(OC)cc2O[C@@H]1c1ccc2c(c1)OCO2)C(C)C` belongs 18.4 µM [rising, single point]; to `O=C(NNc1ccccc1[N+](=O)[O-])Nc1ccc(Cl)c(Cl)c1`, 20.6 µM [falling, partial curve].
`Cc1ccc(OCc2nnc(N)s2)cc1`: under setting [2], the AC50 was 4.47 µM [rising, partial curve, poor fit].
For `Cc1ccc(S(=O)(=O)N(C)CC(=O)NCc2ccncc2)cc1`, the AC50 under setting [1] is 3.26 µM [rising, partial curve, poor fit].
As to `Cc1cc(C(F)F)n2nc(C(=O)Nc3cccc(C(F)(F)F)c3)nc2n1`, the concentration at half-maximal activity (AC50) under setting [1] was 6.51 µM [rising, partial curve, poor fit].
As for `CN1C(=O)CSc2ccc(NC(=O)Nc3ccccn3)cc21`, under setting [1], the AC50 was 0.58 µM [falling, full curve].
On to `CCN(CC)c1ccc2nc3ccc(N)cc3[n+](-c3ccccc3)c2c1`, for which the AC50 under setting [2] was 10.3 µM [rising, partial curve, poor fit].
As to `Cc1cc(C(=O)CSc2cccc[n+]2[O-])c(C)n1-c1ccc(Br)cc1`, the AC50 was 25.1 µM [falling, single point] under setting [1] and 31.6 µM [falling, single point] under setting [2].
Consider `COc1ccc(-n2c(SCC(=O)NCC3CCCO3)nc3ccccc32)cc1` (centres undefined), for which the AC50 under setting [1] is 6.51 µM [rising, single point].
Consider `CCOc1cc(/C=N/NC(=O)c2cccnc2)ccc1O`, for which the half-maximal activity concentration (AC50) under setting [1] was 22.4 µM [falling, single point].
`COc1cccc(C(=O)Nc2ccc3c(c2)CCCN3C(=O)c2cccs2)c1OC`: the AC50 under setting [1] is 35.5 µM [falling, single point].
With `CC(OC(=O)c1ccc2ccccc2n1)C(=O)c1ccccc1` (centres undefined), the AC50 under setting [1] was 3.98 µM [rising, partial curve, poor fit].
Take `Cc1ccc(-n2ncc3c(NCCc4ccccc4)ncnc32)cc1`: under setting [1], the AC50 is 35.5 µM [falling, single point].
On to `CCOC(=O)c1cc(-c2ccccc2)nn1-c1ccccn1`, for which, under setting [1], the AC50 was 0.651 µM [rising, full curve, poor fit].
Take `COCCn1c(SC(C)C(=O)NCC2CCCO2)nc2scc(-c3ccc(F)cc3)c2c1=O` (centres undefined): the AC50 is 14.6 µM [falling, partial curve, poor fit] under setting [1] and 14.6 µM [rising, partial curve, poor fit] under setting [2].
Take `Cc1cc(=O)oc2ccc(OCC(=O)N(Cc3ccc(F)cc3)Cc3ccco3)cc12`: under setting [1], the AC50 is 20.6 µM [falling, single point].
On the same count and under the same terms, to `O=C(CCc1ccccc1)Nc1ccc(F)cc1F` belongs 18.4 µM [falling, partial curve, poor fit].
On the same count and under the same terms, to `COc1ccc(NC(=O)c2ccco2)cc1NC(=O)c1cccnc1` belongs 0.058 µM [rising, full curve, poor fit]; to `COc1ccc(Nc2nc(-c3ccccc3)c(C(=O)Nc3cccnc3)s2)cc1`, 15.8 µM [falling, single point]; to `COc1cccc(C(=O)OCC(=O)Nc2cc(C)c(C)cc2[N+](=O)[O-])c1`, 6.51 µM [rising, partial curve, poor fit].
Take `COC(=O)COc1cccc2c(=O)n(CC(=O)Nc3ccc4c(c3)OCCO4)ccc12`: the AC50 under setting [1] was 0.0891 µM [rising, full curve, poor fit].
As to `Cn1c(=O)c(Cc2ccccc2)c(O)c2ccccc21`, the AC50 under setting [1] was 20.6 µM [rising, single point].
With `O=C(CCN1C(=O)/C(=C/c2ccccc2Cl)SC1=S)NC1CCS(=O)(=O)C1` (centres undefined), the AC50 under setting [1] is 14.1 µM [falling, single point].
With `c1ccc(Nc2nc(CSc3ncn[nH]3)cs2)cc1`, the AC50 under setting [1] was 28.2 µM [falling, single point].
The same measure, in the same setting: to `CCOC(=O)c1[nH]ncc1[C@@H]1C[C@H]2CN(Cc3cccc(Cl)c3)C(=O)[C@]23CCCN13` belongs 1.41 µM [rising, full curve, poor fit].
On to `O=[N+]([O-])c1cccc(-c2noc(-c3cccs3)n2)c1`, for which the AC50 under setting [1] is 0.631 µM [rising, full curve, poor fit].
For the compound `CC(CCc1ccccc1)NC(=O)c1ccccc1` (centres undefined), the AC50 under setting [1] is 6.51 µM [falling, single point].
Take `CC(=O)Nc1nc2nc(-c3ccccc3)cc(-c3ccccc3)n2n1`: the AC50 under setting [1] was 3.98 µM [falling, full curve].
On the same count and under the same terms, to `O=C(COC(=O)c1ccc2c(c1[N+](=O)[O-])C(=O)c1ccccc1C2=O)NC1CC1` belongs 14.1 µM [falling, single point]; to `Cc1ccc(C(=O)Nc2ccc(-n3c(C)nc4ccccc4c3=O)cc2)cc1[N+](=O)[O-]`, 15.8 µM [falling, single point].
Regarding `O=C(CN1CCC(NC(=O)Nc2ccc(F)cc2)CC1)Nc1ccccc1[N+](=O)[O-]`, the half-maximal activity concentration (AC50) under setting [1] is 35.5 µM [rising, single point] and the AC50 under setting [2] was 11.2 µM [falling, partial curve, poor fit].
With `COc1ccc(C2COC(=O)C2=N)c(NC(=O)c2ccccc2)c1` (centres undefined), the AC50 under setting [1] was 14.6 µM [falling, partial curve, poor fit].
The same measure, in the same setting: to `O=C(NCCC1=CCCCC1)c1c(O)nc2sccn2c1=O` belongs 2.91 µM [falling, partial curve, poor fit].
Turning to `O=C(Cn1cc(/C=N/NC(=O)c2ccccc2Br)c2ccccc21)Nc1ccc(F)cc1`, the AC50 under setting [1] is 18.4 µM [falling, single point].
Same read-out and setting: to `CSc1nc2ccc(NS(=O)(=O)c3ccc([N+](=O)[O-])cc3)cc2s1` belongs 15.8 µM [falling, partial curve, poor fit]; to `O=C(NC(NNc1ccc([N+](=O)[O-])cc1)(C(F)(F)F)C(F)(F)F)c1ccccc1Cl`, 8.91 µM [falling, partial curve].
Consider `O=C(Nc1ccccc1C(=O)NCCc1ccccc1)c1ccco1`, for which the AC50 under setting [2] is 12.6 µM [rising, partial curve, poor fit].
In the case of `COc1cc2c(cc1OC)CN(C(=O)C1CCCN1S(=O)(=O)c1ccc(C)cc1)CC2` (centres undefined), the AC50 under setting [1] is 11.2 µM [rising, partial curve, poor fit].
Take `Oc1cccc2c(NC(=S)Nc3ccc(SC(F)F)cc3)cccc12`: the concentration at half-maximal activity (AC50) under setting [1] is 0.461 µM [falling, full curve].
Consider `COc1ccc(/C=C2\SC(=S)N(CCC(=O)Nc3ccccc3C(=O)O)C2=O)cc1`, for which the AC50 under setting [1] is 1 µM [falling, full curve].
For the compound `O=c1[nH]c(-c2ccc(Cl)cc2)cs1`, the AC50 under setting [1] is 25.1 µM [rising, single point].
The same measure, in the same setting: to `Cc1cc(NS(=O)(=O)c2ccc(Nc3nc(-c4sc(C)nc4C)cs3)cc2)no1` belongs 0.00461 µM [rising, full curve, poor fit]; to `COc1ccc2nc(C)cc(NCc3ccc(F)cc3)c2c1`, 7.08 µM [falling, partial curve, poor fit].
For the compound `Cc1nn(-c2ccccc2)c2c1C1(C(=O)N(C)c3ccccc31)C(C#N)=C(N)O2` (centres undefined), the AC50 under setting [1] was 16.4 µM [falling, partial curve, poor fit].
